33 targets from the supplement of paper PMC11732987, “Enantioselective OTUD7B fragment discovery through chemoproteomics screening and high-throughput optimisation” (Communications Chemistry, 2025) can be followed below.

The chains behind the UniProt entries cited, without tags or fusion partners. Where a name states a change or a piece, a line headed by the entry shows the natural chain unless it says otherwise. Residues count along the entry.
UniProt Q9BQ52: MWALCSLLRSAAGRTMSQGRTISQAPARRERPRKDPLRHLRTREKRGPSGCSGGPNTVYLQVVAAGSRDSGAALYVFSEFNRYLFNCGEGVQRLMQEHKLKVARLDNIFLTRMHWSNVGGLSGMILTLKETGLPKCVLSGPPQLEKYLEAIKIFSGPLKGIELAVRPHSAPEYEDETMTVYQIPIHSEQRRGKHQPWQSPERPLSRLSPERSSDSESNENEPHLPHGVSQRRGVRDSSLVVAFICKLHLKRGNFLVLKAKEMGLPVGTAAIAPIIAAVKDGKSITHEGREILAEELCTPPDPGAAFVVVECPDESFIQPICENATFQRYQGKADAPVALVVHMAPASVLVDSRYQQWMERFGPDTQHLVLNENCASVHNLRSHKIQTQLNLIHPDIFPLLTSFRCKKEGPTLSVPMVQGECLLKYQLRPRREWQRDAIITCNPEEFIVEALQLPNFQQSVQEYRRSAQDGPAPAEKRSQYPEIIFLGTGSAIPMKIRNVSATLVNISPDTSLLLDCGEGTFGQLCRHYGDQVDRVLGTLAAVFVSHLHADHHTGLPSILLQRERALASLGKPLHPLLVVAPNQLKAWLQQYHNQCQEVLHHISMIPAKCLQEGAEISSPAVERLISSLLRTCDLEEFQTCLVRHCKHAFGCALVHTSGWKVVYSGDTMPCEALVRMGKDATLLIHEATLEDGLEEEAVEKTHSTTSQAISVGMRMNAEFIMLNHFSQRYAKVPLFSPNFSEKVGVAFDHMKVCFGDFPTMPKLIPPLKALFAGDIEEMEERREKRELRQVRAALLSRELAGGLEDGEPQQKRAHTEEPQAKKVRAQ
UniProt Q9NZJ0: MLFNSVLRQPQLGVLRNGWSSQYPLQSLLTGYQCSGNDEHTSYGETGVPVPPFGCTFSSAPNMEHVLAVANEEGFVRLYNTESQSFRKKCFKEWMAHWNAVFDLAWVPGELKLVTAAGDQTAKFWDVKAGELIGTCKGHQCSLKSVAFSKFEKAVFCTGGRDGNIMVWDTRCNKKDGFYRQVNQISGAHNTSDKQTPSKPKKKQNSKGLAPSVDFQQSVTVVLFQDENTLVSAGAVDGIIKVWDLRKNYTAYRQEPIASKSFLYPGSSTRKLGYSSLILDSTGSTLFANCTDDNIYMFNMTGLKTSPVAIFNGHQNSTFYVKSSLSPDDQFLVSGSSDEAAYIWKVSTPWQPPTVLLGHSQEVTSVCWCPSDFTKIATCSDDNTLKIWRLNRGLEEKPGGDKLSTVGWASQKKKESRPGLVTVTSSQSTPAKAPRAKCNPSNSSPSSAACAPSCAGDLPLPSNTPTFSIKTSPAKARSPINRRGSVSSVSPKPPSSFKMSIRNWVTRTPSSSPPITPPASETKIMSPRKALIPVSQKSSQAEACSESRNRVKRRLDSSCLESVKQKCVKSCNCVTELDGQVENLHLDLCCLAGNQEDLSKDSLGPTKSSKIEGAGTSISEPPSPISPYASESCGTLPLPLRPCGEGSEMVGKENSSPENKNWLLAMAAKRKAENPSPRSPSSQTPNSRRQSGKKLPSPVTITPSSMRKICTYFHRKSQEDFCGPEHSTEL
UniProt P15924: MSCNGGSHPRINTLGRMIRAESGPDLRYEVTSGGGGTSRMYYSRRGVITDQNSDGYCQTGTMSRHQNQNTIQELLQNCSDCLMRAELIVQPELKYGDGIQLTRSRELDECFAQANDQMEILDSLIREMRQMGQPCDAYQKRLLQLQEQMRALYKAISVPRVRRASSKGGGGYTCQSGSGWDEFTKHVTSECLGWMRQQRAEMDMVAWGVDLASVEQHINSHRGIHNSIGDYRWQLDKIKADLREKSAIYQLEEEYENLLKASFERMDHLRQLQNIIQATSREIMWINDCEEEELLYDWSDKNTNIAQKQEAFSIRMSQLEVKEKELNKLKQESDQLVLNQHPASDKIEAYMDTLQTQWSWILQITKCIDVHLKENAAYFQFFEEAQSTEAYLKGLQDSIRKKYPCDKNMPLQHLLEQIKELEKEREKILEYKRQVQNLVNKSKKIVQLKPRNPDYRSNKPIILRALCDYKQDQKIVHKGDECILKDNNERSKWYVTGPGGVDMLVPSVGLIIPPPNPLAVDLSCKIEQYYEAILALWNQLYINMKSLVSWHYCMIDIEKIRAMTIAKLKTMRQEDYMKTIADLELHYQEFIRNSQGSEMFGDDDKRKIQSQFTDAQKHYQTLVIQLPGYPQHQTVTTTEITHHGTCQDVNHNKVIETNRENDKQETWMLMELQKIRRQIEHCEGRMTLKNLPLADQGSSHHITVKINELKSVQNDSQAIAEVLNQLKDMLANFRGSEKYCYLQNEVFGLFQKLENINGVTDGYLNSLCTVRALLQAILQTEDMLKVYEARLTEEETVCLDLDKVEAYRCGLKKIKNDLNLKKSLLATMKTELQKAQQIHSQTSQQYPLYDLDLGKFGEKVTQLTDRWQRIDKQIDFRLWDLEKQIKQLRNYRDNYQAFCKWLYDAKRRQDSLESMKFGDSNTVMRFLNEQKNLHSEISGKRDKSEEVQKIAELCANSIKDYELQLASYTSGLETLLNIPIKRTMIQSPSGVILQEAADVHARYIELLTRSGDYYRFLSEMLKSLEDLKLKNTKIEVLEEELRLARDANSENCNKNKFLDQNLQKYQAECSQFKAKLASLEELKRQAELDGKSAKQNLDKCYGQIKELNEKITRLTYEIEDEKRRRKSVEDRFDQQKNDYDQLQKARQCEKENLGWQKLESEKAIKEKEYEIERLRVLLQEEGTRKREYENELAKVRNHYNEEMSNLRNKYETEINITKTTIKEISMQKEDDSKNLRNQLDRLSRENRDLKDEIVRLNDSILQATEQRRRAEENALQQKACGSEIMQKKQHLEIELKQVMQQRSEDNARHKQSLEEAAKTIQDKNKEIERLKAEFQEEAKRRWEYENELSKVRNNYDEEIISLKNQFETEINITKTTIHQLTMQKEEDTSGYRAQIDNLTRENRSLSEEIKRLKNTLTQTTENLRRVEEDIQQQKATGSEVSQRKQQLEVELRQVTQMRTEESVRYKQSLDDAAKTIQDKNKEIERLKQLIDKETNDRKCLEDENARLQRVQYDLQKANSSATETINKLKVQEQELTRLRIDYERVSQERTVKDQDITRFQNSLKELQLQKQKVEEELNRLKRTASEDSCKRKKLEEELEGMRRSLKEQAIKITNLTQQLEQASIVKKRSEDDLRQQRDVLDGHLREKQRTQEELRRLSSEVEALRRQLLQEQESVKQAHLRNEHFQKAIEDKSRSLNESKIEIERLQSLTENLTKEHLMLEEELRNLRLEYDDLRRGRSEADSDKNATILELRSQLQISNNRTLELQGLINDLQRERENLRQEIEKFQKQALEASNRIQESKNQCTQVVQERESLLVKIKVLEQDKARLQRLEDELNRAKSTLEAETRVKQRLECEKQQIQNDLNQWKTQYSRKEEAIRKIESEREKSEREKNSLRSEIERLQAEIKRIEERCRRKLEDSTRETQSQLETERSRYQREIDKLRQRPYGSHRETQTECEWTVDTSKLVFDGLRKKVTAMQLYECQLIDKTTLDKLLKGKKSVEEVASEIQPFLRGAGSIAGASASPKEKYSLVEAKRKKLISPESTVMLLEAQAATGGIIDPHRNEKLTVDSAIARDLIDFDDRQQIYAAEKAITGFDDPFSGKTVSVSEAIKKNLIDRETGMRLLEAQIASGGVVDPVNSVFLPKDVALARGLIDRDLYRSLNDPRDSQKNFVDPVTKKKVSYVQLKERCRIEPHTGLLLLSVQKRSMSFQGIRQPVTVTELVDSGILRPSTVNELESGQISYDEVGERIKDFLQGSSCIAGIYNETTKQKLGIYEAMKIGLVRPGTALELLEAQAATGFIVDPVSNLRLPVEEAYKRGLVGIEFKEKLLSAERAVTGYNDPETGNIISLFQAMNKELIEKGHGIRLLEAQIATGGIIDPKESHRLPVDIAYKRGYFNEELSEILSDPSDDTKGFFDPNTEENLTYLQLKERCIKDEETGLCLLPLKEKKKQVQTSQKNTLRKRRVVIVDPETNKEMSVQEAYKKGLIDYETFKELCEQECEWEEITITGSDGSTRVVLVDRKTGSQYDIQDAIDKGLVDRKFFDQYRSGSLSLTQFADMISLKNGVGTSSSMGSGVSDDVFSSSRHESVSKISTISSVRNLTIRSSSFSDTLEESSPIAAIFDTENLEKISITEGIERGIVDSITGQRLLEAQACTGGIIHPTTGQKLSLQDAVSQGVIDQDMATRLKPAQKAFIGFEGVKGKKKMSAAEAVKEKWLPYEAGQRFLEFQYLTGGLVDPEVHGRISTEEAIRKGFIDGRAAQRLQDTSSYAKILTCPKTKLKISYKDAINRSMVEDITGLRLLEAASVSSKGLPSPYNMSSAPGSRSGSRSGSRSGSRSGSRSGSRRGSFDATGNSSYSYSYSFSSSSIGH
UniProt P55010: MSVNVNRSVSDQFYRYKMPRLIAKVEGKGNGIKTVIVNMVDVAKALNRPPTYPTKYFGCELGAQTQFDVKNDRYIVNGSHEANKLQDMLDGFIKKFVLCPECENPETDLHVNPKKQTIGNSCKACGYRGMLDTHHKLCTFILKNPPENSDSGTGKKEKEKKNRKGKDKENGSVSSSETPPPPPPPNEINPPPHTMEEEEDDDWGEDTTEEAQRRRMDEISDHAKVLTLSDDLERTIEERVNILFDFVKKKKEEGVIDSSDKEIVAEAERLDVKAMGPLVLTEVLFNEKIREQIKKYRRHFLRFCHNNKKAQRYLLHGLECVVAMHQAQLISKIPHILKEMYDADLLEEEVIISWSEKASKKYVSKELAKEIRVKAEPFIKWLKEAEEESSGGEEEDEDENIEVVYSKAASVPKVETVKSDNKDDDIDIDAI
UniProt O95905, 7-26: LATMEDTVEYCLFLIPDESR
UniProt O60841: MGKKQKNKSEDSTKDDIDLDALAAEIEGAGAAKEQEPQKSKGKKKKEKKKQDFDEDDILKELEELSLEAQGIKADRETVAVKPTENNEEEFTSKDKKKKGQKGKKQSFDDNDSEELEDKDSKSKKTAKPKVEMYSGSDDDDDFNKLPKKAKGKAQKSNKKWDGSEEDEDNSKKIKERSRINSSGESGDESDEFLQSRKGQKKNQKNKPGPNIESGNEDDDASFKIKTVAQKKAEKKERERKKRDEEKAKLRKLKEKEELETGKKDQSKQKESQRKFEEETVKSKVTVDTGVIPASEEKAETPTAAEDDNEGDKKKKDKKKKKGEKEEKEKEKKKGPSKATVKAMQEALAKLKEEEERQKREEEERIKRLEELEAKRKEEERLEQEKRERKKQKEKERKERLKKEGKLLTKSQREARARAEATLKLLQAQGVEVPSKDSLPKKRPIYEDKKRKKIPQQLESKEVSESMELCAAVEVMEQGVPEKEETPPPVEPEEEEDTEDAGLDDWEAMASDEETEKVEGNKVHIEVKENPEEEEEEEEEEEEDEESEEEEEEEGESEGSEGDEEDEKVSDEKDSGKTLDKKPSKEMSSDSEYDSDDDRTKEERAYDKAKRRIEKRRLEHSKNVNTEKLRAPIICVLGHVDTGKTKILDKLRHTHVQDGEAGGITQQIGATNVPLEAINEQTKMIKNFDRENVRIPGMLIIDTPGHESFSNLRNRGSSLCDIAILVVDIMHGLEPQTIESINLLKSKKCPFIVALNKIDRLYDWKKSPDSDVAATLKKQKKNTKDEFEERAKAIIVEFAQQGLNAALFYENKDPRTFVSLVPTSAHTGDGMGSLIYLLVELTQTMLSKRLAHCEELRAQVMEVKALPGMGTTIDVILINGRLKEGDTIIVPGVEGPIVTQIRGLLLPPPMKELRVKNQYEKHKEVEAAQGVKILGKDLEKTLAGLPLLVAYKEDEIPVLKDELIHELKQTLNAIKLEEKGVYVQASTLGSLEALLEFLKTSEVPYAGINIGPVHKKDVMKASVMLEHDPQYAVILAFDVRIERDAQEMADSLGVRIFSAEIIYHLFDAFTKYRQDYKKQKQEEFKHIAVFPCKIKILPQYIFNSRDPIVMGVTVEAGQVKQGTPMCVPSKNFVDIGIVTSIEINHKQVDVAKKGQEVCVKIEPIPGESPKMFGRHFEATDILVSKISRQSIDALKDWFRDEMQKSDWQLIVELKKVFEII
UniProt Q9H410: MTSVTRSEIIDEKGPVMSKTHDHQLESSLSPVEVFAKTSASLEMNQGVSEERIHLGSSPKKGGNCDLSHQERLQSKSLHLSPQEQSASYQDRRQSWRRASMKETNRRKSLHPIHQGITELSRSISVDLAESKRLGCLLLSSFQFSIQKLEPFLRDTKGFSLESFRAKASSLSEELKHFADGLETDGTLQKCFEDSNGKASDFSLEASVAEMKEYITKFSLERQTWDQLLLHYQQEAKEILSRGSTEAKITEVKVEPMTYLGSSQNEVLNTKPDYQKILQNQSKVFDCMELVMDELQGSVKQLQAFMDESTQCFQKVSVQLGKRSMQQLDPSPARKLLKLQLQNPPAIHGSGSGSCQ

The list shows a part of the results. The data scatter; read single values as rough.

Compound in experiment [1]: ClCC(=O)N[C@@H]1CCCc2ccccc12
Kind of experiment: log2 mean competition ratio of IA-DTB cysteine labelling (DMSO/compound) (log2 ratio); higher = stronger cysteine engagement by compound. The following applies: treatment time: 4 h, cell line lysate: HEK293T. As for the experimental part:
(§1)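 IA-DTB competitive cysteine chemoproteomics in HEK293T RIPA lysate. Lysates were treated with compound 29 or 30 at 50 or 200 µM for 4 h, then IA-DTB (500 µM, 1 h), trypsin-digested, NeutrAvidin-enriched and analysed by diaPASEF. Competition ratio = intensity DMSO / intensity compound (n=4 treated, n=64 DMSO); binding: mean log2 CR ≥ 1 and p ≤ 0.05 plus QC filters. Target is the cysteine site.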

Compound in experiment [2]: ClCC(=O)N[C@H]1CCCc2ccccc12
Described as above. To be noted: treatment time: 4 h, cell line lysate: HEK293T. As for the experimental part: as §1

Take ELAC2 C421 (UniProt Q9BQ52): the “log2 mean competition ratio” value in experiment [1] (50 µM) is 0.253; in experiment [1] (200 µM), 0.0487; in experiment [2] (50 µM), 0.228; in experiment [2] (200 µM), 0.205.

Take EIF2S3B C434: the “log2 mean competition ratio” value in experiment [1] (50 µM) is -0.274; in experiment [1] (200 µM) it was -0.187; in experiment [2] (50 µM), -0.262; in experiment [2] (200 µM), -0.2.

In the case of DTL C379 (UniProt Q9NZJ0), the “log2 mean competition ratio” value was -0.0986 in experiment [1] (50 µM), 0.113 in experiment [1] (200 µM), -0.166 in experiment [2] (50 µM) and 0.167 in experiment [2] (200 µM).

On to DYNC2H1 C3778 (UniProt Q8NCM8), for which the “log2 mean competition ratio” value in experiment [1] (50 µM) was 0.165; in experiment [1] (200 µM) it was 0.0289; in experiment [2] (50 µM), -0.311; in experiment [2] (200 µM) it was 0.21.

On to EIF2B5 C196, for which the “log2 mean competition ratio” value in experiment [1] (50 µM) is -0.257; in experiment [1] (200 µM), -0.0518; in experiment [2] (50 µM), 0.362; in experiment [2] (200 µM), -0.0426.

E2F4 C88 (UniProt Q16254): the “log2 mean competition ratio” value in experiment [1] (50 µM) is -0.0745; in experiment [1] (200 µM) it was -0.00362; in experiment [2] (50 µM) it was 0.059; in experiment [2] (200 µM), -0.0651.

DSP C768 (UniProt P15924): the “log2 mean competition ratio” value was -0.362 in experiment [1] (50 µM), -0.482 in experiment [1] (200 µM), -0.0628 in experiment [2] (50 µM) and -0.418 in experiment [2] (200 µM).

For the target DST C5922 (UniProt Q03001), the “log2 mean competition ratio” value is -0.126 in experiment [1] (50 µM), 0.0425 in experiment [1] (200 µM), 0.00471 in experiment [2] (50 µM) and 0.129 in experiment [2] (200 µM).

With DSP C135 (UniProt P15924), the “log2 mean competition ratio” value in experiment [1] (50 µM) was -0.165; in experiment [1] (200 µM), 0.104; in experiment [2] (50 µM), -0.0775; in experiment [2] (200 µM), 0.0945.

Take DYNC2I2 C362: the “log2 mean competition ratio” value in experiment [1] (50 µM) is 0.0822; in experiment [1] (200 µM), 0.191; in experiment [2] (50 µM), -0.0884; in experiment [2] (200 µM) it was 0.118.

EEFSEC C406 (UniProt P57772): the “log2 mean competition ratio” value in experiment [1] (50 µM) was 0.000284; in experiment [1] (200 µM), 0.208; in experiment [2] (50 µM) it was 0.00755; in experiment [2] (200 µM), 0.128.

For the target EIF5 C59 (UniProt P55010), the “log2 mean competition ratio” value in experiment [1] (50 µM) is 0.117; in experiment [1] (200 µM), -0.00642; in experiment [2] (50 µM), 0.357; in experiment [2] (200 µM), -0.0969.

Consider ECD C17 (UniProt O95905), for which the “log2 mean competition ratio” value in experiment [1] (50 µM) is -0.694; in experiment [1] (200 µM), -0.621; in experiment [2] (50 µM), 0.23; in experiment [2] (200 µM), -0.481.

With DSC3 C57, the “log2 mean competition ratio” value is -0.139 in experiment [1] (50 µM), 0.086 in experiment [1] (200 µM), -0.294 in experiment [2] (50 µM) and -0.119 in experiment [2] (200 µM).

In the case of EFNA5 C164, the “log2 mean competition ratio” value in experiment [1] (50 µM) came to 0.226; in experiment [1] (200 µM) it was 0.0585; in experiment [2] (50 µM) it was 0.462; in experiment [2] (200 µM), 0.12.

With EIF3A C478 (UniProt Q14152), the “log2 mean competition ratio” value was -0.266 in experiment [1] (50 µM), -0.393 in experiment [1] (200 µM), 0.303 in experiment [2] (50 µM) and -0.078 in experiment [2] (200 µM).

Turning to EIF3B C515, the “log2 mean competition ratio” value in experiment [1] (50 µM) was -0.0119; in experiment [1] (200 µM), -0.1; in experiment [2] (50 µM) it was -0.187; in experiment [2] (200 µM), 0.0839.

For the target DUS3L C408 (UniProt Q96G46), the “log2 mean competition ratio” value in experiment [1] (50 µM) came to 0.255; in experiment [1] (200 µM) it was 0.272; in experiment [2] (50 µM), 0.26; in experiment [2] (200 µM), 0.479.

Regarding EIF2A C306 (UniProt Q9BY44), the “log2 mean competition ratio” value was 0.084 in experiment [1] (50 µM), 0.00277 in experiment [1] (200 µM), 0.17 in experiment [2] (50 µM) and -0.0294 in experiment [2] (200 µM).

As for EEA1 C346 (UniProt Q15075), the “log2 mean competition ratio” value in experiment [1] (50 µM) was -0.214; in experiment [1] (200 µM), 0.167; in experiment [2] (50 µM), -0.251; in experiment [2] (200 µM) it was 0.173.

As for DTNB C248, the “log2 mean competition ratio” value is 0.24 in experiment [1] (50 µM), 0.192 in experiment [1] (200 µM), -0.145 in experiment [2] (50 µM) and 0.209 in experiment [2] (200 µM).

With EIF5B C1158 (UniProt O60841), the “log2 mean competition ratio” value in experiment [1] (50 µM) was -0.102; in experiment [1] (200 µM), -0.123; in experiment [2] (50 µM), 0.22; in experiment [2] (200 µM), 0.00544.

Consider DYNC2H1 C3245 (UniProt Q8NCM8), for which the “log2 mean competition ratio” value was 0.261 in experiment [1] (50 µM), -0.0783 in experiment [1] (200 µM), 0.369 in experiment [2] (50 µM) and 0.0665 in experiment [2] (200 µM).

On to DSN1 C355 (UniProt Q9H410), for which the “log2 mean competition ratio” value in experiment [1] (50 µM) is -0.086; in experiment [1] (200 µM) it was 0.392; in experiment [2] (50 µM) it was -0.183; in experiment [2] (200 µM), 0.228.

On to DSP C1957 (UniProt P15924), for which the “log2 mean competition ratio” value in experiment [1] (50 µM) was -0.0176; in experiment [1] (200 µM), -0.0194; in experiment [2] (50 µM), 0.182; in experiment [2] (200 µM), 0.0132.

EIF2S3B C105: the “log2 mean competition ratio” value in experiment [1] (50 µM) was -0.0459; in experiment [1] (200 µM), -0.0782; in experiment [2] (50 µM), 0.298; in experiment [2] (200 µM), 0.0874.

In the case of DTNA C197, the “log2 mean competition ratio” value was -0.037 in experiment [1] (50 µM), 0.00926 in experiment [1] (200 µM), 0.166 in experiment [2] (50 µM) and 0.173 in experiment [2] (200 µM).

DSP C174 (UniProt P15924): the “log2 mean competition ratio” value was determined as 0.0137 in experiment [1] (50 µM), 0.108 in experiment [1] (200 µM), 0.0183 in experiment [2] (50 µM) and 0.247 in experiment [2] (200 µM).

On to DUS1L C146 (UniProt Q6P1R4), for which the “log2 mean competition ratio” value in experiment [1] (50 µM) was -0.104; in experiment [1] (200 µM), -0.0407; in experiment [2] (50 µM) it was 0.312; in experiment [2] (200 µM), -0.0217.

Regarding EHBP1L1 C422 (UniProt Q8N3D4), the “log2 mean competition ratio” value in experiment [1] (50 µM) is 0.358; in experiment [1] (200 µM), 0.233; in experiment [2] (50 µM), 0.0214; in experiment [2] (200 µM) it was -0.152.

Regarding EDC4 C976 (UniProt Q6P2E9), the “log2 mean competition ratio” value was 0.157 in experiment [1] (50 µM), -0.0905 in experiment [1] (200 µM), -0.284 in experiment [2] (50 µM) and -0.291 in experiment [2] (200 µM).

EIF4G3 C340: the “log2 mean competition ratio” value in experiment [1] (50 µM) is 0.239; in experiment [1] (200 µM), -0.185; in experiment [2] (50 µM) it was 0.832; in experiment [2] (200 µM), -0.261.

In the case of DYNC1LI2 C234 (UniProt O43237), the “log2 mean competition ratio” value is 0.056 in experiment [1] (50 µM), 0.0201 in experiment [1] (200 µM), -0.228 in experiment [2] (50 µM) and -0.0161 in experiment [2] (200 µM).
